PubChem BioAssay AID602346 (Broad Institute, 2012)
Out of some 340,000 compounds screened, about 1,200 (0.35%) were called active. Inconclusive means that the source gave no clear call. Such entries were picked first, then a sample of the others. Cut-off read from the data, not from the text of the source: active = inhibition above about 50% (passing the limit was not always enough); inconclusive = no clear call, values can overlap the other calls; inactive = below about 31%.

Assay: blockers of Vif multimerization in cells – imaging, HEK293T, single point, primary screen (AID 602346)
Conditions: Vif self-association by quenched fluorescence, 24 h, at 7.49 µM, active compounds read high

| SMILES | inhibition |
| --- | --- |
| Cc1cccc(N2C(=O)CC(N3CCC(c4nc5ccccc5[nH]4)CC3)C2=O)c1 (stereo not drawn) | inconclusive: 33% |
| CCCS(=O)(=O)c1nnnn1-c1cccc(OC)c1 | inconclusive: 36.6% |
| O=C(CCC1CCCN(C(=O)c2ccc(F)c(F)c2)C1)N1CCN(c2ccccn2)CC1 (stereo not drawn) | inconclusive: 26.1% |
| O=C(NCCc1ccccc1)c1ccccc1C(F)(F)F | inconclusive: 35.3% |
| COc1ccc2c(c1)C(=O)N1[C@H]3c4cc(Cl)ccc4OC[C@@H]3[C@H](c3ccccc3)[C@]1(C)C(=O)N2 | inactive: -10.8% |
| c1ccc2c(c1)[nH]c1c(N3CCC4(CC3)OCCO4)ncnc12 | inconclusive: 44% |
| CC(NC(=O)c1ccc(S(=O)(=O)Nc2ccccc2Cl)cc1)c1ccncc1 (stereo not drawn) | inconclusive: 27.2% |
| COC1CCN(C(=O)c2ccc3oc(C(C)C)nc3c2)CC1 | inactive: 2.76% |
| Cc1csc(=N)n1-c1ccc(Cl)cc1 | inconclusive: 32.9% |
| CCOC(=O)c1ccc(NC(=O)Nc2ccc(F)cc2)cc1 | inactive: -4.6% |
| O=C(c1cnn2cccnc12)N1CCN(c2ccccc2)CC1 | inactive: -1.85% |
| Cc1ccc(-c2nnnn2CS(=O)(=O)c2ccccc2)cc1 | inconclusive: 35.3% |
| O=C(NC1CCCC1)C(c1ccccn1)N(C(=O)c1csnn1)C1CC1 (stereo not drawn) | inconclusive: 45.5% |
| CCc1nc(SCC(=O)Nc2ccccc2C)n[nH]1 | inactive: 0.112% |
| Cc1ccccc1OCC(O)CNC1CCC(NCC(O)COc2ccccc2C)CC1 (stereo not drawn) | inconclusive: 36.8% |
| C[C@@H]1CN([C@H](C)CO)C(=O)c2c(c3ccccc3n2C)-c2ccccc2CO[C@@H]1CN(C)C(=O)Nc1ccccc1C(F)(F)F | active: 53% |
| COc1cccc(-c2nc3c(c(SCC(=O)N4CCOCC4)n2)Cc2c(CO)cnc(C)c2O3)c1 | inconclusive: 41.2% |
| O=C(c1ccco1)N1CCN(Cc2c(F)cccc2Cl)CC1 | inconclusive: 30.5% |
| COc1ccc(C2=CC(=O)OC3(CCCCC3)O2)cc1 | inconclusive: 46.1% |
| COc1ccc(-c2noc(CN(C)Cc3ccccc3)n2)cc1 | inconclusive: 41.6% |
| Cc1ccc(-c2csc3nc(C)n(-n4c(C)ccc4C)c(=O)c23)o1 | inconclusive: 30.8% |
| CCOc1cccc(C2C(C(=O)c3ccco3)=C(O)C(=O)N2c2nnc(C)s2)c1 (stereo not drawn) | inconclusive: 32.3% |

| SMILES | inhibition |
| --- | --- |
| COc1ccccc1Oc1coc2cc(OCC(N)=O)ccc2c1=O | active: 59.5% |
| O=[N+]([O-])c1cc(S(=O)(=O)N2CCOCC2)ccc1NS(=O)(=O)c1ccccc1 | inconclusive: 45.1% |
| COc1cc(/C=C2\SC(N3CCC(C)CC3)=NC2=O)ccc1O | inconclusive: 37.5% |
| NC(=O)C1CC2(C1)CC(C(N)=O)C2 (stereo not drawn) | inconclusive: 28.4% |
| Cc1ccc(Cc2cnc(NC(=O)/C(C#N)=C/c3ccc(-c4ccc([N+](=O)[O-])cc4)o3)s2)cc1 | active: 89% |
| O=c1cnn(Cc2c(Cl)cccc2Cl)c2ccccc12 | inactive: 15.7% |
| C=CCc1c(C)nc(SCc2nc3ccccc3c(=O)[nH]2)[nH]c1=O | inconclusive: 12.8% |
| COc1ccc(CCNC(=O)COC(=O)/C=C/c2ccc3c(c2)OCO3)cc1 | inconclusive: 21.6% |
| O=C(Nc1cc(S(=O)(=O)Nc2ccccc2Cl)ccc1O)c1sc2cc(Cl)ccc2c1Cl | inactive: 2.51% |
| CCCc1cc(=O)oc2cc(OC(C)C(=O)NCCCn3ccnc3)ccc12 (stereo not drawn) | inconclusive: 38.4% |
| O=C(C1=C(O)C(=O)N(CCN2CCOCC2)C1c1ccncc1)c1ccco1 (stereo not drawn) | inconclusive: 39.2% |
| CC(=O)Nc1ccc(S(=O)(=O)N(C)S(=O)(=O)c2ccc(F)cc2)cc1 | inconclusive: 26.4% |
| CSc1ncccc1C(=O)OCC(=O)NC(C)(C)C | active: 51.7% |
| CCC(C)NC(=O)Cn1c(=O)n(-c2ccccc2)c(=O)c2ccc(C(=O)NCc3ccco3)cc21 (stereo not drawn) | active: 60.7% |
| C=CCNc1nc(NC(C)(C)CO)nc(OCC)n1 | inconclusive: 28.6% |
| CCCCCC(=O)Nc1ccc(Cc2ccncc2)cc1 | active: 80.1% |
| O=C(Nc1ccc(S(=O)(=O)N2CCCCC2)cc1)C1CCCCC1 | inconclusive: 41% |
| Cc1cc(C)c(S(=O)(=O)N(C)CC(=O)N2CCCC2)c(C)c1 | inactive: 4.98% |
| CC(=O)Nc1ccc(NC(=O)C(C)OC(=O)/C(C#N)=C/c2ccc(N(C)C)cc2)cc1 (stereo not drawn) | active: 124% |
| O=C(O)/C=C/C(=O)N(Cc1ccccc1)Cc1ccco1 | inconclusive: 46.5% |
| C/C(=N/NC(=O)c1cccs1)c1ccc(NC(=O)COc2ccc(Cl)cc2Cl)cc1 | inconclusive: 50% |
| O=C(CN1C(=O)NC2(CCc3ccccc32)C1=O)NCCc1ccccc1 (stereo not drawn) | inconclusive: 41% |

4 of the compounds above, bar-delimited.
SMILES | inhibition
O=C(Nc1cc(S(=O)(=O)Nc2ccccc2Cl)ccc1O)c1sc2cc(Cl)ccc2c1Cl | inactive: 2.51%
CCCc1cc(=O)oc2cc(OC(C)C(=O)NCCCn3ccnc3)ccc12 (stereo not drawn) | inconclusive: 38.4%
O=C(C1=C(O)C(=O)N(CCN2CCOCC2)C1c1ccncc1)c1ccco1 (stereo not drawn) | inconclusive: 39.2%
CC(=O)Nc1ccc(S(=O)(=O)N(C)S(=O)(=O)c2ccc(F)cc2)cc1 | inconclusive: 26.4%

Carrying on.

| SMILES | inhibition |
| --- | --- |
| CCCn1nc(C(=O)NNC(=O)c2cccc(C)c2)c2ccccc2c1=O | inconclusive: 48.5% |
| COc1ccccc1C(=O)Nc1nc(-c2cccs2)c(NC(C)=O)s1 | inconclusive: 40.3% |
| C[C@H](Cc1ccccc1)Nc1ncnc2c1ncn2[C@@H]1O[C@H](CO)[C@@H](O)[C@H]1O | active: 64.7% |
| Cc1nc2ccccn2c1P(=Nc1ccccc1)(N(C)C)N(C)C | inconclusive: 49.9% |
| Cc1ccc(Cl)c2c1NC(=O)C2(O)CC(=O)c1ccc(Br)cc1 (stereo not drawn) | inactive: 2.95% |
| CC(=O)Nc1ccc(S(=O)(=O)NC(=O)C23CC4CC(CC(C4)C2)C3)cc1 | inconclusive: 36.1% |
| O=C(NCCSc1ccccc1)c1ccccc1 | inconclusive: 21.1% |
| O=C(Nc1ccc(S(=O)(=O)N2CCCc3ccccc32)cc1)C1CCCO1 (stereo not drawn) | inconclusive: 21% |
| O=C(O)CCCNS(=O)(=O)c1ccc(NCc2ccccc2)c(C(=O)O)c1 | inconclusive: 33.7% |
| CCN(C(=O)N(CC)c1ccccc1)c1ccccc1 | inconclusive: 36.4% |
| CS(=O)(=O)c1ncc(Cl)c(C(=O)Nc2ccc(OC(F)F)cc2)n1 | active: 53.8% |
| COC(=O)c1[nH]c2ccc(F)cc2c1NS(=O)(=O)c1ccc(OC)cc1OC | inactive: 1.88% |
| CCC(C)C(=O)Nn1c(C2CC2)nc2cc(OC)c(OC)cc2c1=O (stereo not drawn) | active: 125% |
| COc1cccc(-c2ccc3ncnc(NCc4cccs4)c3c2)c1 | inactive: -7.39% |
| O=C(Nc1c(Cl)cccc1Cl)c1cc(=O)n(Cc2ccccc2)c(=O)[nH]1 | inconclusive: 32.6% |
| C=CCNc1ncnc2c1ncn2C1OC(CO)C(O)C1O (stereo not drawn) | active: 60.4% |
| CN(C)C(=S)NC(C)(C)C | inconclusive: 31.2% |
| COc1ccc(Cl)cc1C(=O)N/N=C/c1ccc(N2CCOCC2)cc1 | inconclusive: 38.5% |
| C(=N\N1CCOCC1)/c1nc(-c2ccccc2)n2ccccc12 | inconclusive: 36.8% |
| COc1ccc(NC(=S)N2CCC(c3nc4ccccc4[nH]3)CC2)c(OC)c1 | inconclusive: 35.9% |
| O=C(CN1C(=O)NC2(CCc3ccccc32)C1=O)c1ccc(Cl)cc1 (stereo not drawn) | inconclusive: 24.2% |
| COC(=O)c1c(NC(=O)COC(=O)CCNS(=O)(=O)c2ccc(NC(C)=O)cc2)sc(C)c1C | inconclusive: 36.2% |

| SMILES | inhibition |
| --- | --- |
| O=C(N/N=C/c1cccnc1)c1cc2c(ccc3ccccc32)o1 | inconclusive: 30.6% |
| CCN(CC)S(=O)(=O)c1cccc(C(=O)Nc2nc3cc4c(cc3s2)OCCO4)c1 | inactive: -11.2% |
| CC(C)C(=O)Nc1ccc(C(=O)Nc2nnc(C(C)C)s2)cc1 | inconclusive: 15.8% |
| O=C(NCCc1ccccc1)c1ccc(Cl)c(S(=O)(=O)N2CCCC2)c1 | inactive: -20.5% |
| Cc1ccc(C(=O)OCC(=O)Nc2sc3c(c2C#N)CCC3)cc1 | inconclusive: 28.6% |
| O=C(C1CCC(CNS(=O)(=O)c2cccc3nsnc23)CC1)N1CC=C(c2ccccc2)CC1 (stereo not drawn) | inactive: -16.9% |
| COc1ccc(NC(=O)c2cccc(S(=O)(=O)N3CCN(C)CC3)c2)c(OC)c1 | active: 54.3% |
| COc1ccc(NC(=O)CSc2nc(-c3ccco3)nc3cc(=O)[nH]n23)cc1Cl | inconclusive: 47.1% |
| CCCCN(CC(=O)NC1CC1)S(=O)(=O)c1ccc(OCC)cc1 | inconclusive: 47.3% |
| COc1ccccc1OCc1ccc(C(=O)Nc2cc(OC)c(OC)c(OC)c2)o1 | inactive: -9.59% |
| CC(C)(C)C(=O)Nc1ccc(C(=O)N/N=C/c2ccccc2OC(=O)c2ccccc2)cc1 | inactive: -1.32% |
| OCCCNc1ncnc2c1ncn2[C@H]1CN(C2CCCC2)C[C@@H](CO)O1 | inconclusive: 27.3% |
| O=C(Oc1coc(CSc2nnc(NC(=O)C3CC3)s2)cc1=O)c1c(F)cccc1F | inactive: -1.82% |
| O=C(CSc1ncnc2[nH]ncc12)Nc1cccc(Oc2ccccc2)c1 | inactive: 2.33% |
| Cc1onc(-c2ccccc2)c1C(=O)N1CCc2ccccc21 | inconclusive: 43.6% |
| O=C(Oc1ccnc2cc(Cl)ccc12)N1CCCCCC1 | inactive: 4.28% |
| COc1ccccc1Nc1ncc(C(=O)Nc2ccc(OC)c(OC)c2)c2ccccc12 | inconclusive: 30.5% |
| COc1cc(Cl)ccc1OCc1cc(C(=O)N2CCN(C)C(=O)[C@@H]2C)no1 | inactive: -3.97% |
| Cc1ccc(-n2c(Cc3noc4ccccc34)n[nH]c2=S)cc1 | inconclusive: 25.2% |
| COc1ccc(Cl)cc1N(CC(=O)NCCSCc1ccccc1)S(C)(=O)=O | inconclusive: 29.1% |
| COc1cc(CNC2CCCC2)cc(OC)c1 | inactive: -5.98% |
| Cc1ccc(-n2nc3c(N4CCC(C(=O)NCCc5ccccc5C)CC4)nnc(C)c3c2C)cc1 | active: 53.6% |
